Data on five compounds can be found in PubChem BioAssay AID248 (DTP/NCI, 2004).

The list does not hold the whole screen: it gathers tests that were run many times, whatever their T/C, doses with no T/C, and many T/C values between a quarter and a half above the control. Further doses and runs are listed elsewhere. T/C: endpoint of the treated group in % of that of the vehicle group. Some doses have a count of surviving animals in place of a T/C: the source holds a T/C of zero for them, seemingly a mark for toxic or unscored doses. Some survivor counts are full or nearly so, which does not show that the dose was tolerated: survival well below the control is almost never listed, so the zero probably covers shortened survival too. Survivors were counted at the toxicity check, usually on the fifth day, unless a day is given; later deaths do not show. Schedules are NCI's codes, read here as Q, the interval in days (D) or hours (H), X, the number of doses. Counts like (3×) say how often a value occurs here. Some schedules carry Z or #; the key to these is not given. For survival time, this PubChem deposit counts one and a half times the control or more as active, and values a quarter to a half above the control carry no call in these data; other NCI protocols may use other cut-offs. Some doses were run more than once; the results are listed from low to high.

The test deals with L1210 leukemia ip in BDF1 mice, survival T/C. The test can be described thus: NCI In Vivo Anticancer Drug Screen. Data for tumor model L1210 Leukemia (intraperitoneal) in B6D2F1 (BDF1) mice. To be noted: higher T/C = longer survival.
[1] abbreviates: T/C endpoint: mean survival time, dose: 60.0 mg/kg/injection, schedule: Q01DX Z (ip), vehicle: saline.

`CN(N=O)C(N)=O`: the T/C reads like this: (T/C endpoint: mean survival time, dose: 1.25 mg/kg/injection, schedule: Q01DX Z (sc), vehicle: steroid suspending solution) 135 % of control; (T/C endpoint: mean survival time, dose: 3.12 mg/kg/injection, schedule: Q01DX Z (oral), vehicle: steroid suspending solution) 133 % of control; (T/C endpoint: mean survival time, dose: 5.3 mg/kg/injection, schedule: Q01DX Z (ip), vehicle: saline) 145 % of control; (T/C endpoint: mean survival time, dose: 8.0 mg/kg/injection, schedule: Q02DX010 (ip), vehicle: saline) 129 % of control; (T/C endpoint: mean survival time, dose: 8.6 mg/kg/injection, schedule: Q02DX010 (ip), vehicle: carboxymethylcellulose (CMC)) 105, 119, 121, 128, 130 % of control; (T/C endpoint: mean survival time, dose: 9.0 mg/kg/injection, schedule: Q01DX Z (ip), vehicle: carboxymethylcellulose (CMC)) 134 and 144 % of control. For the same compound, the T/C is 127 % of control (T/C endpoint: mean survival time, dose: 9.0 mg/kg/injection, schedule: Q01DX Z (sc), vehicle: saline); 137 and 139 % of control (T/C endpoint: mean survival time, dose: 10.0 mg/kg/injection, schedule: Q01DX009 (ip), vehicle: saline); 128 % of control (T/C endpoint: mean survival time, dose: 10.7 mg/kg/injection, schedule: Q02DX010 (ip), vehicle: saline); 143 % of control (T/C endpoint: mean survival time, dose: 12.0 mg/kg/injection, schedule: Q01DX Z (sc), vehicle: other); 128 % of control (T/C endpoint: mean survival time, dose: 12.0 mg/kg/injection, schedule: Q01DX Z (sc), vehicle: saline); 116, 121, 125, 141, 154 % of control (T/C endpoint: mean survival time, dose: 13.0 mg/kg/injection, schedule: Q02DX010 (ip), vehicle: carboxymethylcellulose (CMC)). In addition, the T/C reads like this: (T/C endpoint: mean survival time, dose: 13.0 mg/kg/injection, schedule: Q02DX010 (ip), vehicle: other) 130 % of control; (T/C endpoint: mean survival time, dose: 13.0 mg/kg/injection, schedule: Q02DX010 (ip), vehicle: saline) 138 % of control; (T/C endpoint: mean survival time, dose: 13.4 mg/kg/injection, schedule: Q02DX010 (ip), vehicle: carboxymethylcellulose (CMC)) 126, 128, 138, 141, 148 % of control; (T/C endpoint: mean survival time, dose: 16.0 mg/kg/injection, schedule: Q02DX010 (ip), vehicle: saline) 149 % of control; (T/C endpoint: mean survival time, dose: 18.0 mg/kg/injection, schedule: Q01DX Z (ip), vehicle: carboxymethylcellulose (CMC)) 146 % of control; (T/C endpoint: mean survival time, dose: 18.0 mg/kg/injection, schedule: Q01DX Z (sc), vehicle: saline) 130 % of control. Further, the T/C by setting is: (T/C endpoint: mean survival time, dose: 20.0 mg/kg/injection, schedule: Q02DX010 (ip), vehicle: carboxymethylcellulose (CMC)) 124, 125, 127, 131, 139, 146 (2×), 148, 152, 159 % of control; (T/C endpoint: mean survival time, dose: 24.8 mg/kg/injection, schedule: Q01DX Z (oral), vehicle: saline) 137 % of control; (T/C endpoint: mean survival time, dose: 27.0 mg/kg/injection, schedule: Q01DX Z (ip), vehicle: carboxymethylcellulose (CMC)) 149 % of control; (T/C endpoint: mean survival time, dose: 27.0 mg/kg/injection, schedule: Q01DX Z (ip), vehicle: saline) 132 % of control; (T/C endpoint: mean survival time, dose: 27.0 mg/kg/injection, schedule: Q01DX Z (sc), vehicle: other) 132 % of control; (T/C endpoint: mean survival time, dose: 27.0 mg/kg/injection, schedule: Q01DX Z (sc), vehicle: saline) 130 % of control. Moreover, the T/C runs as follows: (T/C endpoint: mean survival time, dose: 30.0 mg/kg/injection, schedule: Q02DX010 (ip), vehicle: carboxymethylcellulose (CMC)) 156, 157, 164, 166, 172, 173, 176, 179, 186, 188 % of control; (T/C endpoint: mean survival time, dose: 36.0 mg/kg/injection, schedule: Q01DX001 (ip), vehicle: saline) 141 % of control; (T/C endpoint: mean survival time, dose: 36.0 mg/kg/injection, schedule: Q01DX Z (oral), vehicle: saline) 140 and 143 % of control; (T/C endpoint: mean survival time, dose: 45.0 mg/kg/injection, schedule: Q02DX010 (ip), vehicle: carboxymethylcellulose (CMC)) 115, 119, 120, 122, 133, 137 (2×), 146, 155, 170 % of control; (T/C endpoint: mean survival time, dose: 45.0 mg/kg/injection, schedule: Q02DX010 (ip), vehicle: other) 138 % of control; (T/C endpoint: mean survival time, dose: 45.0 mg/kg/injection, schedule: Q02DX010 (ip), vehicle: saline) 133 % of control. For the same compound, the T/C (T/C endpoint: mean survival time, dose: 54.4 mg/kg/injection, schedule: Q02DX010 (ip), vehicle: saline) was 132 % of control; the T/C (T/C endpoint: mean survival time, dose: 68.0 mg/kg/injection, schedule: Q02DX010 (ip), vehicle: carboxymethylcellulose (CMC)) is given as 81, 84, 85, 104 % of control; the T/C (T/C endpoint: median survival time, dose: 5.0 mg/kg/injection, schedule: Q01DX009 (ip), vehicle: saline) is 127 % of control; the T/C (T/C endpoint: median survival time, dose: 6.0 mg/kg/injection, schedule: Q01DX009 (ip), vehicle: saline, evaluated on day 30) was 139 % of control; the T/C (T/C endpoint: median survival time, dose: 6.0 mg/kg/injection, schedule: Q01DX009 (ip), vehicle: saline, evaluated on day 32) was 130 % of control; the T/C (T/C endpoint: median survival time, dose: 6.3 mg/kg/injection, schedule: Q01DX017 (ip), vehicle: saline) was 144 % of control. The T/C by setting is: (T/C endpoint: median survival time, dose: 10.0 mg/kg/injection, schedule: Q01DX009 (ip), vehicle: saline) 142 % of control; (T/C endpoint: median survival time, dose: 12.0 mg/kg/injection, schedule: Q01DX009 (ip), vehicle: saline) 140 % of control; (T/C endpoint: median survival time, dose: 24.0 mg/kg/injection, schedule: Q01DX009 (ip), vehicle: saline) 129 % of control. The survivor count is listed as 4 of 7 (T/C endpoint: mean survival time, dose: 25.0 mg/kg/injection, schedule: Q01DX Z (oral), vehicle: steroid suspending solution); 0 of 7 (T/C endpoint: mean survival time, dose: 50.0 mg/kg/injection, schedule: Q#A X Z (oral), vehicle: saline); 6 of 6 under setting [1]; 6 of 6 (T/C endpoint: mean survival time, dose: 84.0 mg/kg/injection, schedule: Q01DX Z (oral), vehicle: saline); 3 of 6 (T/C endpoint: mean survival time, dose: 90.0 mg/kg/injection, schedule: Q01DX Z (ip), vehicle: saline); 0 of 6 (T/C endpoint: mean survival time, dose: 135.0 mg/kg/injection, schedule: Q01DX Z (ip), vehicle: saline). For the same compound, the survivor count runs as follows: (T/C endpoint: mean survival time, dose: 144.0 mg/kg/injection, schedule: Q01DX001 (ip), vehicle: saline) 7 of 10; (T/C endpoint: mean survival time, dose: 200.0 mg/kg/injection, schedule: Q01DX Z (ip), vehicle: saline) 0 of 6; (T/C endpoint: mean survival time, dose: 201.0 mg/kg/injection, schedule: Q03DX Z (oral), vehicle: saline) 0 of 7; (T/C endpoint: mean survival time, dose: 288.0 mg/kg/injection, schedule: Q01DX001 (ip), vehicle: saline) 0 of 10; (T/C endpoint: mean survival time, dose: 300.0 mg/kg/injection, schedule: Q03DX Z (oral), vehicle: saline) 0 of 7; (T/C endpoint: mean survival time, dose: 315.0 mg/kg/injection, schedule: Q07DX Z (oral), vehicle: saline) 0 of 7. In addition, the survivor count by setting is: (T/C endpoint: mean survival time, dose: 320.0 mg/kg/injection, schedule: Q01DX Z (sc), vehicle: steroid suspending solution) 6 of 7; (T/C endpoint: mean survival time, dose: 469.0 mg/kg/injection, schedule: Q07DX Z (oral), vehicle: saline) 0 of 7; (T/C endpoint: mean survival time, dose: 700.0 mg/kg/injection, schedule: Q07DX Z (oral), vehicle: saline) 0 of 7; (T/C endpoint: median survival time, dose: 48.0 mg/kg/injection, schedule: Q01DX009 (ip), vehicle: saline) 8 of 8 (2×).
Consider `Cn1c(Cl)nc2c(Cl)nc(Cl)nc21`, for which the survivor count by setting is: (T/C endpoint: mean survival time, dose: 25.0 mg/kg/injection, schedule: Q01DX009 (ip), vehicle: Klucel (hydroxypropylcellulose) (HPC)) 3 of 6; (T/C endpoint: mean survival time, dose: 50.0 mg/kg/injection, schedule: Q01DX009 (ip), vehicle: Klucel (hydroxypropylcellulose) (HPC)) 0 of 6.
Consider `Nc1ccc(CCCCc2ccc(Cl)cc2Cl)cc1`, for which the survivor count (T/C endpoint: mean survival time, dose: 200.0 mg/kg/injection, schedule: Q01DX009 (ip), vehicle: saline with Tween-80) is listed as 1 of 6.
In the case of `O=C(Nc1ccc(NC2=NCCN2)cc1)c1ccc(C(=O)Nc2ccc(NC3=NCCN3)cc2)c([N+](=O)[O-])c1`, the T/C (T/C endpoint: mean survival time, dose: 7.5 mg/kg/injection, schedule: Q01DX Z (ip), vehicle: saline) is 148 % of control. In addition, the survivor count runs as follows: (T/C endpoint: mean survival time, dose: 30.0 mg/kg/injection, schedule: Q01DX Z (ip), vehicle: saline) 1 of 6; under setting [1], 0 of 6; (T/C endpoint: mean survival time, dose: 120.0 mg/kg/injection, schedule: Q01DX Z (ip), vehicle: saline) 0 of 6.
As for `CCCCCCCCCCC(=O)[O][Hg][c]1ccccc1`, the survivor count is given as 0 of 6 (T/C endpoint: mean survival time, dose: 37.5 mg/kg/injection, schedule: Q01DX001 (ip), vehicle: saline); 1 of 6 (T/C endpoint: mean survival time, dose: 75.0 mg/kg/injection, schedule: Q01DX001 (ip), vehicle: other); 0 of 6 (T/C endpoint: mean survival time, dose: 150.0 mg/kg/injection, schedule: Q01DX001 (ip), vehicle: other); 1 of 6 (T/C endpoint: mean survival time, dose: 300.0 mg/kg/injection, schedule: Q01DX001 (ip), vehicle: other).
